The data set has as its system Hsp90 complexes in K562 cell extract. The data set is described as follows: Nano-LC-MS/MS of PU-beads pull-downs. The format is binding. The note with it: for Matched Peptides by Fraction JA07: Run1, gel size cut <40; for Matched Peptides by Fraction JA14: Run2, gel size cut <40; for MAXIMUM matched peptides: maximum over fractions JA01-JA14; for Total fmol: protein isolated in PU-beads pull-downs, Waters Xevo QTof MS; for Matched Peptides by Fraction JA06: Run1, gel size cut 40-60; for Matched Peptides by Fraction JA05: Run1, gel size cut 60-80; for Matched Peptides by Fraction JA12: Run2, gel size cut 60-80. Put shortly:
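Lysates pre-cleared overnight at 4 °C with control beads, then pulled down with PU-beads or control beads; eluted proteins (2% SDS boil) gel-separated and analysed by nano LC-MS/MS on a QTof. Mascot identification (p<0.05), spectral counts and sequence coverage evaluated in Scaffold.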

B1: Ras suppressor protein 1 (protein, UniProt Q15404 2-277, looked up)
Ras suppressor protein 1: SKSLKKLVEESREKNQPEVDMSDRGISNMLDVNGLFTLSHITQLVLSHNKLTMVPPNIAELKNLEVLNFFNNQIEELPTQISSLQKLKHLNLGMNRLNTLPRGFGSLPALEVLDLTYNNLSENSLPGNFFYLTTLRALYLSDNDFEILPPDIGKLTKLQILSLRDNDLISLPKEIGELTQLKELHIQGNRLTVLPPELGNLDLTGQKQVFKAENNPWVTPIADQFQLGVSHVFEYIRSETYKYLYGRHMQANPEPPKKNNDKSKKISRKPLAAKNR
B1 had a Total fmol of 3.2914 fmol. Moreover, where the note is “PU-beads pull-down”, the “Matched Peptides by Fraction JA07” value is listed as 5, the “Matched Peptides by Fraction JA14” value was 4 and the MAXIMUM matched peptides was 5.

B2: Hsc70-interacting protein; HIP (protein, UniProt P50502 1-369, looked up)
Hsc70-interacting protein: MDPRKVNELRAFVKMCKQDPSVLHTEEMRFLREWVESMGGKVPPATQKAKSEENTKEEKPDSKKVEEDLKADEPSSEESDLEIDKEGVIEPDTDAPQEMGDENAEITEEMMDQANDKKVAAIEALNDGELQKAIDLFTDAIKLNPRLAILYAKRASVFVKLQKPNAAIRDCDRAIEINPDSAQPYKWRGKAHRLLGHWEEAAHDLALACKLDYDEDASAMLKEVQPRAQKIAEHRRKYERKREEREIKERIERVKKAREEHERAQREEEARRQSGAQYGSFPGGFPGGMPGNFPGGMPGMGGGMPGMAGMPGLNEILSDPEVLAAMQDPEVMVAFQDVAQNPANMSKYQSNPKVMNLISKLSAKFGGQA
Molecule B2 returned a Total fmol of 96.9194 fmol. For the same molecule, under “PU-beads pull-down”, the “Matched Peptides by Fraction JA06” value is 23 and the MAXIMUM matched peptides is given as 23. The “Matched Peptides by Fraction JA13” value (PU-beads pull-down, Run2, gel size cut 40-60) turned out to be 19.

B3: Protein CREG1 (protein, UniProt O75629 32-220, looked up)
Protein CREG1: RGGRDHGDWDEASRLPPLPPREDAARVARFVTHVSDWGALATISTLEAVRGRPFADVLSLSDGPPGAGSGVPYFYLSPLQLSVSNLQENPYATLTMTLAQTNFCKKHGFDPQSPLCVHIMLSGTVTKVNETEMDIAKHSLFIRHPEMKTWPSSHNWFFAKLNITNIWVLDYFGGPKIVTPEEYYNVTVQ
Molecule B3 displayed a Total fmol of 8.0371 fmol. In addition, where the note is “PU-beads pull-down”, the “Matched Peptides by Fraction JA07” value was determined as 2, the “Matched Peptides by Fraction JA14” value is 3 and the MAXIMUM matched peptides worked out at 3.

B4: Transcriptional repressor p66-beta (protein, UniProt Q8WXI9 1-593, looked up)
Transcriptional repressor …: MDRMTEDALRLNLLKRSLDPADERDDVLAKRLKMEGHEAMERLKMLALLKRKDLANLEVPHELPTKQDGSGVKGYEEKLNGNLRPHGDNRTAGRPGKENINDEPVDMSARRSEPERGRLTPSPDIIVLSDNEASSPRSSSRMEERLKAANLEMFKGKGIEERQQLIKQLRDELRLEEARLVLLKKLRQSQLQKENVVQKTPVVQNAASIVQPSPAHVGQQGLSKLPSRPGAQGVEPQNLRTLQGHSVIRSATNTTLPHMLMSQRVIAPNPAQLQGQRGPPKPGLVRTTTPNMNPAINYQPQSSSSVPCQRTTSSAIYMNLASHIQPGTVNRVSSPLPSPSAMTDAANSQAAAKLALRKQLEKTLLEIPPPKPPAPLLHFLPSAANSEFIYMVGLEEVVQSVIDSQGKSCASLLRVEPFVCAQCRTDFTPHWKQEKNGKILCEQCMTSNQKKALKAEHTNRLKNAFVKALQQEQEIEQRLQQQAALSPTTAPAVSSVSKQETIMRHHTLRQAPQPQSSLQRGIPTSARSMLSNFAQAPQLSVPGGLLGMPGVNIAYLNTGIGGHKGPSLADRQREYLLDMIPPRSISQSISGQK
The molecule B4 returned a Total fmol of 1.5826 fmol. Also, where the note is “PU-beads pull-down”, the “Matched Peptides by Fraction JA05” value amounted to 13 and the MAXIMUM matched peptides was 13.

B5: Phosducin-like protein 3 (protein, UniProt Q9H2J4 1-239, looked up)
Phosducin-like protein 3: MQDPNADTEWNDILRKKGILPPKESLKELEEEAEEEQRILQQSVVKTYEDMTLEELEDHEDEFNEEDERAIEMYRRRRLAEWKATKLKNKFGEVLEISGKDYVQEVTKAGEGLWVILHLYKQGIPLCALINQHLSGLARKFPDVKFIKAISTTCIPNYPDRNLPTIFVYLEGDIKAQFIGPLVFGGMNLTRDELEWKLSESGAIMTDLEENPKKPIEDVLLSSVRRSVLMKRDSDSEGD
B5 gave a Total fmol of 4.3938 fmol. In addition, under “PU-beads pull-down”, the “Matched Peptides by Fraction JA07” value is given as 4, the “Matched Peptides by Fraction JA14” value is on record as 5 and the MAXIMUM matched peptides turned out to be 5.

B6: Heat shock protein 75 kDa, mitochondrial, TRAP1 (protein, UniProt Q12931 60-704, looked up)
Heat shock protein 75 kDa, …: STQTAEDKEEPLHSIISSTESVQGSTSKHEFQAETKKLLDIVARSLYSEKEVFIRELISNASDALEKLRHKLVSDGQALPEMEIHLQTNAEKGTITIQDTGIGMTQEELVSNLGTIARSGSKAFLDALQNQAEASSKIIGQFGVGFYSAFMVADRVEVYSRSAAPGSLGYQWLSDGSGVFEIAEASGVRTGTKIIIHLKSDCKEFSSEARVRDVVTKYSNFVSFPLYLNGRRMNTLQAIWMMDPKDVREWQHEEFYRYVAQAHDKPRYTLHYKTDAPLNIRSIFYVPDMKPSMFDVSRELGSSVALYSRKVLIQTKATDILPKWLRFIRGVVDSEDIPLNLSRELLQESALIRKLRDVLQQRLIKFFIDQSKKDAEKYAKFFEDYGLFMREGIVTATEQEVKEDIAKLLRYESSALPSGQLTSLSEYASRMRAGTRNIYYLCAPNRHLAEHSPYYEAMKKKDTEVLFCFEQFDELTLLHLREFDKKKLISVETDIVVDHYKEEKFEDRSPAAECLSEKETEELMAWMRNVLGSRVTNVKVTLRLDTHPAMVTVLEMGAARHFLRMQQLAKTQEERAQLLQPTLEINPRHALIKKLNQLRASEPGLAQLLVDQIYENAMIAAGLVDDPRAMVGRLNELLVKALERH
For B6, the Total fmol amounted to 209.2569 fmol. Also, under “PU-beads pull-down”, the “Matched Peptides by Fraction JA05” value is recorded as 80, the “Matched Peptides by Fraction JA12” value was 90 and the MAXIMUM matched peptides turned out to be 90.

B7: Serine/threonine-protein kinase RIO2 (protein, UniProt Q9BVS4 1-552, looked up)
Serine/threonine-protein …: MGKVNVAKLRYMSRDDFRVLTAVEMGMKNHEIVPGSLIASIASLKHGGCNKVLRELVKHKLIAWERTKTVQGYRLTNAGYDYLALKTLSSRQVVESVGNQMGVGKESDIYIVANEEGQQFALKLHRLGRTSFRNLKNKRDYHKHRHNVSWLYLSRLSAMKEFAYMKALYERKFPVPKPIDYNRHAVVMELINGYPLCQIHHVEDPASVYDEAMELIVKLANHGLIHGDFNEFNLILDESDHITMIDFPQMVSTSHPNAEWYFDRDVKCIKDFFMKRFSYESELFPTFKDIRREDTLDVEVSASGYTKEMQADDELLHPLGPDDKNIETKEGSEFSFSDGEVAEKAEVYGSENESERNCLEESEGCYCRSSGDPEQIKEDSLSEESADARSFEMTEFNQALEEIKGQVVENNSVTEFSEEKNRTENYNRQDGQRVQGGVPAGSDEYEDECPHLIALSSLNREFRPFRDEENVGAMNQYRTRTLSITSSGSAVSCSTIPPELVKQKVKRQLTKQQKSAVRRRLQKGEANIFTKQRRENMQNIKSSLEAASFWGE
Consider B7, for which the Total fmol worked out at 3.6676 fmol. In addition, the “Matched Peptides by Fraction JA04” value (PU-beads pull-down, Run1, gel size cut 80-110) stood at 6. In addition, the MAXIMUM matched peptides (PU-beads pull-down) stood at 6.

B8: Integrin-linked protein kinase; ILK (protein, UniProt Q13418 1-452, looked up)
Scaffold protein ILK: MDDIFTQCREGNAVAVRLWLDNTENDLNQGDDHGFSPLHWACREGRSAVVEMLIMRGARINVMNRGDDTPLHLAASHGHRDIVQKLLQYKADINAVNEHGNVPLHYACFWGQDQVAEDLVANGALVSICNKYGEMPVDKAKAPLRELLRERAEKMGQNLNRIPYKDTFWKGTTRTRPRNGTLNKHSGIDFKQLNFLTKLNENHSGELWKGRWQGNDIVVKVLKVRDWSTRKSRDFNEECPRLRIFSHPNVLPVLGACQSPPAPHPTLITHWMPYGSLYNVLHEGTNFVVDQSQAVKFALDMARGMAFLHTLEPLIPRHALNSRSVMIDEDMTARISMADVKFSFQCPGRMYAPAWVAPEALQKKPEDTNRRSADMWSFAVLLWELVTREVPFADLSNMEIGMKVALEGLRPTIPPGISPHVCKLMKICMNEDPAKRPKFDMIVPILEKMQDK
B8 returned a Total fmol of 1.6140 fmol. For the setting “PU-beads pull-down”, the “Matched Peptides by Fraction JA06” value is given as 4 and the MAXIMUM matched peptides is reported as 4.

B9: Calpain-1 catalytic subunit; CAPN1 (protein, UniProt P07384 2-714, looked up)
Calpain-1 catalytic subunit: SEEIITPVYCTGVSAQVQKQRARELGLGRHENAIKYLGQDYEQLRVRCLQSGTLFRDEAFPPVPQSLGYKDLGPNSSKTYGIKWKRPTELLSNPQFIVDGATRTDICQGALGDCWLLAAIASLTLNDTLLHRVVPHGQSFQNGYAGIFHFQLWQFGEWVDVVVDDLLPIKDGKLVFVHSAEGNEFWSALLEKAYAKVNGSYEALSGGSTSEGFEDFTGGVTEWYELRKAPSDLYQIILKALERGSLLGCSIDISSVLDMEAITFKKLVKGHAYSVTGAKQVNYRGQVVSLIRMRNPWGEVEWTGAWSDSSSEWNNVDPYERDQLRVKMEDGEFWMSFRDFMREFTRLEICNLTPDALKSRTIRKWNTTLYEGTWRRGSTAGGCRNYPATFWVNPQFKIRLDETDDPDDYGDRESGCSFVLALMQKHRRRERRFGRDMETIGFAVYEVPPELVGQPAVHLKRDFFLANASRARSEQFINLREVSTRFRLPPGEYVVVPSTFEPNKEGDFVLRFFSEKSAGTVELDDQIQANLPDEQVLSEEEIDENFKALFRQLAGEDMEISVKELRTILNRIISKHKDLRTKGFSLESCRSMVNLMDRDGNGKLGLVEFNILWNRIRNYLSIFRKFDLDKSGSMSAYEMRMAIESAGFKLNKKLYELIITRYSEPDLAVDFDNFVCCLVRLETMFRFFKTLDTDLDGVVTFDLFKWLQLTMFA
In turn, B9 came in with a Total fmol of 18.7642 fmol. Moreover, where the note is “PU-beads pull-down”, the “Matched Peptides by Fraction JA05” value is 22, the “Matched Peptides by Fraction JA12” value is 27 and the MAXIMUM matched peptides was found to be 27.

The record behind these values is US20220074941A1, “HSP90 COMBINATION THERAPY” (Sloan-Kettering Institute for Cancer Research, priority 2011, published 2022).
